This assay deals with SBP-S-CUL5 (UniProt Q93034). As to the kind of experiment: affinity purification with mass spectrometry; tandem affinity purification of SBP-S-CUL5 from MIA PaCa-2 lysate (NETN buffer: 0.5% NP-40, 50 mM Tris pH 8, 0.1 M NaCl, 2 mM EDTA): Streptavidin Sepharose, biotin elution, then S-protein agarose; SDS-PAGE and LC-MS/MS; mock vector pLVX as control.

The chains behind the UniProt entries cited, without tags or fusion partners.
UniProt Q93034: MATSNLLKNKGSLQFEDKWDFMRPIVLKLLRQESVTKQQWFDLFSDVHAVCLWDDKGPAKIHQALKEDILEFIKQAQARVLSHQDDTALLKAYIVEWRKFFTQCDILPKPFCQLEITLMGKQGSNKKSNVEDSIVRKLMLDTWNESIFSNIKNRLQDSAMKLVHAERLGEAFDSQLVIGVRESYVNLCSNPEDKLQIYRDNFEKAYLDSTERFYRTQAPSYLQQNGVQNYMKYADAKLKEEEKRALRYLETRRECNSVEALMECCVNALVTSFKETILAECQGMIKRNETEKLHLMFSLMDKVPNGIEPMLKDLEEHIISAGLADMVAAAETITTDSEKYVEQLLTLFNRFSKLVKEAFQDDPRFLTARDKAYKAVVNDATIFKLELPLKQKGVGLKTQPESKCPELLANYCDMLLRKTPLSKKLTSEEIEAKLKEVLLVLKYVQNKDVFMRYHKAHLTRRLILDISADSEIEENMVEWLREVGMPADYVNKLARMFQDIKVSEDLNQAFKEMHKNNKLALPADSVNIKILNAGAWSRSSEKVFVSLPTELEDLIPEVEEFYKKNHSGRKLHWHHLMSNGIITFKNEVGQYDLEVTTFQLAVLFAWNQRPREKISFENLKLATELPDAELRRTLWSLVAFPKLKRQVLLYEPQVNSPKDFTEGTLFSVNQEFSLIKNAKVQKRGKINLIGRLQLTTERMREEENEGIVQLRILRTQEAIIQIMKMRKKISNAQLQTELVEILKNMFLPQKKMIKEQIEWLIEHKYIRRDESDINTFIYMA
UniProt Q9NYG5: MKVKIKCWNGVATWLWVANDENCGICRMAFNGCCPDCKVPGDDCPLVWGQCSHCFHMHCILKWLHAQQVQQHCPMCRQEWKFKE

These are yes or no findings as the source states them, for the method shown. In cells and extracts the contact can be indirect. A yes stands for co-enrichment or nearness to the bait. Other partners may have been found.

For “endogenous APC11 (from UniProt Q9NYG5 1-84)”, the binding result is on record as “binds”.

Values taken from article PMC12806337.
